Results taken from US9999690B2, “Labeled compounds and methods of imaging, diagnosing cartilage disorders and diseases, and monitoring cartilage health using labeled and unlabeled compounds” (Perosphere Inc., priority 2013, dated 2018).
This continues a long series; more values of the same kind are listed elsewhere.

Assay: Tissue distribution of radioactivity by Quantitative Whole-Body Autoradiography (QWBA), Group 4
Format: in vivo
Details: rat, single IV 2 mg/kg
Experimental: A study was conducted to determine the pharmacokinetics, rates and routes of excretion with mass baseline and tissue distribution of radioactivity, after a single intravenous dose administration of formula XIII (also referred to as [^14C]DAP) was administered to the rats by tail vein intravenous injection at a
The study was conducted on 19 male rats divided into 4 groups. The first group of 6 rats was used for blood collection (Group 1); the second group of 4 rats was used for urine, feces, cage rinses and wipes and carcasses collection (Group 2); the third group of 4 rats was used for expired air collection (Group 3); the fourth group of 5 rats was used for terminal blood/serum and tissue distribution by Quantitative Whole-Body Autoradiography (QWBA) (Group 4).
For Group 4, formula XIII (QWBA was run at 1, 8, 12, 24 and 72 hours post dose. After terminal blood collection, each euthanized animal was frozen in a hexane/dry ice bath and embedded in a 2% carboxymethylcellulose matrix according to MPI Research SOP ADME-112. The embedded carcasses were sectioned according to MPI Research SOP ADME-113 on a Leica CM3600 Cyromacrotome set to maintain −10 to −30° C. At least four fortified quality control standards of known radioactive concentration were placed into the frozen block prior to sectioning and used for section thickness quality control. The quality control standards were sectioned under the same conditions as the specimen. The intrasection and intersection variation of collected sections were determined by analyzing the quality control standards. Section variation must be less than 20% for quantitative analysis. Sections that were approximately 40μm thick were taken in the sagittal plane. Appropriate sections selected at various levels of interest in the block were collected to encompass the following tissues, organs, and biological fluids, where possible: adrenal gland, bladder (urinary) and contents (urine), blood (cardiac), bone, bone marrow, brain, eye, fat (brown), fat (white), heart, kidney, large intestine/cecum and contents, liver, lung, muscle, pancreas, prostate, salivary glands, skin, small intestine and contents, spleen, stomach and contents, testes, thymus, thyroid, mesenteric lymph nodes, and epididymis. A set of sections were mounted, exposed to phosphor imaging screens and scanned using the Storm 860 image acquisition system according to MPI Research SOP ADME-112. Quantification, relative to the calibration standards, were performed by image densitometry using MCID™ image analysis software according to MPI Research SOP ADME-114. A standard curve was constructed from the integrated response (MDC/mm2) and the nominal concentrations of the [^14C]Glucose calibration standards. Relative error should be less than 0.5 for each point on the curve. The concentrations of radioactivity were expressed as μCi/g and were converted to μg or ng-equivalents of DAP per gram of sample (μg- or ng-eq/g) using the specific activity of administered [^14C]DAP dose formulation. A lower limit of quantification (LLOQ) was applied to the data. The LLOQ was determined using the radioactive concentration of the lowest calibration standard used to generate a calibration curve divided by the specific activity of the dose formulation (μCi/ug). Artifacts, such as those produced by dislodged contents of the alimentary canal, were excluded from analysis during image analysis.

SMILES: [2H]C1([2H])N(CCCNC(=O)[C@@H](N)CCCNC(=N)N)C([2H])([2H])C([2H])([2H])N(CCCNC(=O)[C@@H](N)CCCNC(=N)N)C1([2H])[2H] [formula XIII]
- Concentration of Radioactivity in Adrenal gland (1 Hour): 1747 ng Equivalents [^14C]DAP/g
- Concentration of Radioactivity in Blood (1 Hour): 1794 ng Equivalents [^14C]DAP/g
- Concentration of Radioactivity in Bone (1 Hour): 445 ng Equivalents [^14C]DAP/g
- Concentration of Radioactivity in Bulbourethral gland (1 Hour): 2841 ng Equivalents [^14C]DAP/g
- Concentration of Radioactivity in Cecum (1 Hour): 3182 ng Equivalents [^14C]DAP/g
- Concentration of Radioactivity in Cecum contents (1 Hour): 543 ng Equivalents [^14C]DAP/g
- Concentration of Radioactivity in Cerebellum (1 Hour): 223 ng Equivalents [^14C]DAP/g
- Concentration of Radioactivity in Cerebrum (1 Hour): 252 ng Equivalents [^14C]DAP/g
- Concentration of Radioactivity in Diaphragm (1 Hour): 1782 ng Equivalents [^14C]DAP/g
- Concentration of Radioactivity in Epididymis (1 Hour): 2539 ng Equivalents [^14C]DAP/g
- Concentration of Radioactivity in Esophageal contents (1 Hour): 498 ng Equivalents [^14C]DAP/g
- Concentration of Radioactivity in Esophagus (1 Hour): 2248 ng Equivalents [^14C]DAP/g
- Concentration of Radioactivity in Exorbital gland (1 Hour): 3586 ng Equivalents [^14C]DAP/g
- Concentration of Radioactivity in Eye (lens) (1 Hour): 325 ng Equivalents [^14C]DAP/g
- Concentration of Radioactivity in Fat (brown) (1 Hour): 2750 ng Equivalents [^14C]DAP/g
- Concentration of Radioactivity in Fat (white) (1 Hour): 1144 ng Equivalents [^14C]DAP/g
- Concentration of Radioactivity in Harderian gland (1 Hour): 1506 ng Equivalents [^14C]DAP/g
- Concentration of Radioactivity in Intraorbital gland (1 Hour): 3349 ng Equivalents [^14C]DAP/g
- Concentration of Radioactivity in Large intestine (1 Hour): 4060 ng Equivalents [^14C]DAP/g
- Concentration of Radioactivity in Lung (1 Hour): 3486 ng Equivalents [^14C]DAP/g
- Concentration of Radioactivity in Lymph nodes (1 Hour): 3855 ng Equivalents [^14C]DAP/g
- Concentration of Radioactivity in Medulla (1 Hour): 188 ng Equivalents [^14C]DAP/g
- Concentration of Radioactivity in Muscle (1 Hour): 717 ng Equivalents [^14C]DAP/g
- Concentration of Radioactivity in Myocardium (1 Hour): 1978 ng Equivalents [^14C]DAP/g
- Concentration of Radioactivity in Nasal turbinates (1 Hour): 3326 ng Equivalents [^14C]DAP/g
- Concentration of Radioactivity in Olfactory lobe (1 Hour): 609 ng Equivalents [^14C]DAP/g
- Concentration of Radioactivity in Pancreas (1 Hour): 2923 ng Equivalents [^14C]DAP/g
- Concentration of Radioactivity in Pituitary gland (1 Hour): 3786 ng Equivalents [^14C]DAP/g
- Concentration of Radioactivity in Preputial gland (1 Hour): 3702 ng Equivalents [^14C]DAP/g
- Concentration of Radioactivity in Prostate gland (1 Hour): 4652 ng Equivalents [^14C]DAP/g
- Concentration of Radioactivity in Salivary gland (1 Hour): 4047 ng Equivalents [^14C]DAP/g
- Concentration of Radioactivity in Seminal vesicles (1 Hour): 331 ng Equivalents [^14C]DAP/g
- Concentration of Radioactivity in Skin (1 Hour): 3318 ng Equivalents [^14C]DAP/g
- Concentration of Radioactivity in Small intestinal contents (1 Hour): 3191 ng Equivalents [^14C]DAP/g
- Concentration of Radioactivity in Spinal cord (1 Hour): 213 ng Equivalents [^14C]DAP/g
- Concentration of Radioactivity in Spleen (1 Hour): 3699 ng Equivalents [^14C]DAP/g
- Concentration of Radioactivity in Stomach (1 Hour): 4422 ng Equivalents [^14C]DAP/g
- Concentration of Radioactivity in Stomach contents (1 Hour): 196 ng Equivalents [^14C]DAP/g
- Concentration of Radioactivity in Testes (1 Hour): 895 ng Equivalents [^14C]DAP/g
- Concentration of Radioactivity in Thyroid gland (1 Hour): 2805 ng Equivalents [^14C]DAP/g
- Concentration of Radioactivity in Uveal tract (1 Hour): 2565 ng Equivalents [^14C]DAP/g
- Concentration of Radioactivity in Vitreous humor (1 Hour): 494 ng Equivalents [^14C]DAP/g
- Concentration of Radioactivity in Adrenal gland (8 Hours): 715 ng Equivalents [^14C]DAP/g
- Concentration of Radioactivity in Blood (8 Hours): 328 ng Equivalents [^14C]DAP/g
- Concentration of Radioactivity in Bone (8 Hours): 250 ng Equivalents [^14C]DAP/g
- Concentration of Radioactivity in Bulbourethral gland (8 Hours): 1086 ng Equivalents [^14C]DAP/g
- Concentration of Radioactivity in Cecum (8 Hours): 1868 ng Equivalents [^14C]DAP/g
- Concentration of Radioactivity in Cecum contents (8 Hours): 1134 ng Equivalents [^14C]DAP/g
- Concentration of Radioactivity in Cerebellum (8 Hours): 180 ng Equivalents [^14C]DAP/g
- Concentration of Radioactivity in Cerebrum (8 Hours): 228 ng Equivalents [^14C]DAP/g
- Concentration of Radioactivity in Diaphragm (8 Hours): 582 ng Equivalents [^14C]DAP/g
- Concentration of Radioactivity in Epididymis (8 Hours): 1041 ng Equivalents [^14C]DAP/g
- Concentration of Radioactivity in Esophageal contents (8 Hours): 434 ng Equivalents [^14C]DAP/g
- Concentration of Radioactivity in Esophagus (8 Hours): 1842 ng Equivalents [^14C]DAP/g
- Concentration of Radioactivity in Exorbital gland (8 Hours): 1415 ng Equivalents [^14C]DAP/g
- Concentration of Radioactivity in Eye (lens) (8 Hours): 183 ng Equivalents [^14C]DAP/g
- Concentration of Radioactivity in Fat (brown) (8 Hours): 1097 ng Equivalents [^14C]DAP/g
- Concentration of Radioactivity in Fat (white) (8 Hours): 485 ng Equivalents [^14C]DAP/g
- Concentration of Radioactivity in Harderian gland (8 Hours): 846 ng Equivalents [^14C]DAP/g
- Concentration of Radioactivity in Intraorbital gland (8 Hours): 1660 ng Equivalents [^14C]DAP/g
- Concentration of Radioactivity in Large intestine (8 Hours): 2237 ng Equivalents [^14C]DAP/g
- Concentration of Radioactivity in Lung (8 Hours): 1635 ng Equivalents [^14C]DAP/g
- Concentration of Radioactivity in Lymph nodes (8 Hours): 2192 ng Equivalents [^14C]DAP/g
- Concentration of Radioactivity in Medulla (8 Hours): 204 ng Equivalents [^14C]DAP/g
- Concentration of Radioactivity in Muscle (8 Hours): 405 ng Equivalents [^14C]DAP/g
- Concentration of Radioactivity in Myocardium (8 Hours): 832 ng Equivalents [^14C]DAP/g
- Concentration of Radioactivity in Nasal turbinates (8 Hours): 3117 ng Equivalents [^14C]DAP/g
- Concentration of Radioactivity in Olfactory lobe (8 Hours): 386 ng Equivalents [^14C]DAP/g
- Concentration of Radioactivity in Pancreas (8 Hours): 2819 ng Equivalents [^14C]DAP/g
- Concentration of Radioactivity in Pituitary gland (8 Hours): 1802 ng Equivalents [^14C]DAP/g
- Concentration of Radioactivity in Prostate gland (8 Hours): 8806 ng Equivalents [^14C]DAP/g
- Concentration of Radioactivity in Salivary gland (8 Hours): 2060 ng Equivalents [^14C]DAP/g
- Concentration of Radioactivity in Seminal vesicles (8 Hours): 274 ng Equivalents [^14C]DAP/g
- Concentration of Radioactivity in Skin (8 Hours): 1893 ng Equivalents [^14C]DAP/g
- Concentration of Radioactivity in Small intestinal contents (8 Hours): 1019 ng Equivalents [^14C]DAP/g
- Concentration of Radioactivity in Spinal cord (8 Hours): 187 ng Equivalents [^14C]DAP/g
- Concentration of Radioactivity in Spleen (8 Hours): 1896 ng Equivalents [^14C]DAP/g
- Concentration of Radioactivity in Stomach (8 Hours): 1348 ng Equivalents [^14C]DAP/g
- Concentration of Radioactivity in Stomach contents (8 Hours): 368 ng Equivalents [^14C]DAP/g
- Concentration of Radioactivity in Testes (8 Hours): 444 ng Equivalents [^14C]DAP/g
- Concentration of Radioactivity in Thyroid gland (8 Hours): 2049 ng Equivalents [^14C]DAP/g
- Concentration of Radioactivity in Vitreous humor (8 Hours): 322 ng Equivalents [^14C]DAP/g
- Concentration of Radioactivity in Adrenal gland (12 Hours): 755 ng Equivalents [^14C]DAP/g
- Concentration of Radioactivity in Blood (12 Hours): 212 ng Equivalents [^14C]DAP/g
- Concentration of Radioactivity in Bone (12 Hours): 356 ng Equivalents [^14C]DAP/g
- Concentration of Radioactivity in Bulbourethral gland (12 Hours): 3753 ng Equivalents [^14C]DAP/g
- Concentration of Radioactivity in Cecum (12 Hours): 2648 ng Equivalents [^14C]DAP/g
- Concentration of Radioactivity in Cecum contents (12 Hours): 2391 ng Equivalents [^14C]DAP/g
- Concentration of Radioactivity in Diaphragm (12 Hours): 603 ng Equivalents [^14C]DAP/g
- Concentration of Radioactivity in Epididymis (12 Hours): 592 ng Equivalents [^14C]DAP/g
- Concentration of Radioactivity in Esophageal contents (12 Hours): 185 ng Equivalents [^14C]DAP/g
